In paper PMC12992792:

Key:
Experiment in all cases: two-hybrid; all-versus-all matrix screen in S. cerevisiae; every protein as bait (DBD) and prey (AD), tagged N- or C-terminally, eight configurations a pair; mating on YPDA, selection on -His/-Trp/-Leu/-Ura/-Ade, 30 °C, four to seven days; replication score cutoff 0.75
[1] = target: T1, D. melanogaster Rhino (D. melanogaster) (UniProt Q7JXA8)
T1 sequence: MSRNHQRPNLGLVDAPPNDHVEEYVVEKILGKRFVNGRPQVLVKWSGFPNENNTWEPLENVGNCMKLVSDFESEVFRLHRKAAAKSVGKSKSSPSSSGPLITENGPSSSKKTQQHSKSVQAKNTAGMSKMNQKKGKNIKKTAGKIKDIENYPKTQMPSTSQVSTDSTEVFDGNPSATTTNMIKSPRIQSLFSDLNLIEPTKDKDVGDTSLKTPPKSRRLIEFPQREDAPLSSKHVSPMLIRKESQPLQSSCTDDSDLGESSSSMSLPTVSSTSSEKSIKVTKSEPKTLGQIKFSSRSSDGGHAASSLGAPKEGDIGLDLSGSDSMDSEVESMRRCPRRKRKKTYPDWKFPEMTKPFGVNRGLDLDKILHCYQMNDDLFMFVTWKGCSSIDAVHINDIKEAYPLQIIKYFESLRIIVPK

[2] = target: T2, D. melanogaster Deadlock (D. melanogaster) (UniProt Q9VIF5)
T2 sequence: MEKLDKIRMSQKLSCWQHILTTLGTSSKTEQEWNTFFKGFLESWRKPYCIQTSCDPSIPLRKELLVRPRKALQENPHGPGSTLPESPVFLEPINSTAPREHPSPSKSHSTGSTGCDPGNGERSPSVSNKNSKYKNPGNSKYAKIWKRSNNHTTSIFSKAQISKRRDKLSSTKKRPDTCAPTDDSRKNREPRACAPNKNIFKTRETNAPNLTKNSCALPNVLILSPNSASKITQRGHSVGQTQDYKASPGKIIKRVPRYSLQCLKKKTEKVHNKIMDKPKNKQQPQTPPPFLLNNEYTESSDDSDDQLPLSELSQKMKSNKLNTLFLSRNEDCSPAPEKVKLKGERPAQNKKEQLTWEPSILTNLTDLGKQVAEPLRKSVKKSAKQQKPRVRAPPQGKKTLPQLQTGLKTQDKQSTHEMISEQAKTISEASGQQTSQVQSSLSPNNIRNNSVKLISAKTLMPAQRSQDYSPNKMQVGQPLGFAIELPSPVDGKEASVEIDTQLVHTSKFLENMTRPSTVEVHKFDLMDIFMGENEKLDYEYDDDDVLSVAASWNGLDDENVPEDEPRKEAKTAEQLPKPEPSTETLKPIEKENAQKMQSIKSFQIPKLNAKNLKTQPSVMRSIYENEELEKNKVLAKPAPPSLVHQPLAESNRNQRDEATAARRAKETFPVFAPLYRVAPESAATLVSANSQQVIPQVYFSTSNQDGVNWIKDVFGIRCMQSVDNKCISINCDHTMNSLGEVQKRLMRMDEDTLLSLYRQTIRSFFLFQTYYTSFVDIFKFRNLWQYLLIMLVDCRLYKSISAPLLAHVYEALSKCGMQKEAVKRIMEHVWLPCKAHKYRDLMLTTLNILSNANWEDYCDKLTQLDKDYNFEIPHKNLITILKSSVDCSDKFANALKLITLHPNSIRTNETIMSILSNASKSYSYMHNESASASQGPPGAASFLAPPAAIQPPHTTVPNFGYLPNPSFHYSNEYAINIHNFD

[3] = target: T3, D. simulans Rhino (D. simulans) (UniProt Q49BI5)
T3 sequence: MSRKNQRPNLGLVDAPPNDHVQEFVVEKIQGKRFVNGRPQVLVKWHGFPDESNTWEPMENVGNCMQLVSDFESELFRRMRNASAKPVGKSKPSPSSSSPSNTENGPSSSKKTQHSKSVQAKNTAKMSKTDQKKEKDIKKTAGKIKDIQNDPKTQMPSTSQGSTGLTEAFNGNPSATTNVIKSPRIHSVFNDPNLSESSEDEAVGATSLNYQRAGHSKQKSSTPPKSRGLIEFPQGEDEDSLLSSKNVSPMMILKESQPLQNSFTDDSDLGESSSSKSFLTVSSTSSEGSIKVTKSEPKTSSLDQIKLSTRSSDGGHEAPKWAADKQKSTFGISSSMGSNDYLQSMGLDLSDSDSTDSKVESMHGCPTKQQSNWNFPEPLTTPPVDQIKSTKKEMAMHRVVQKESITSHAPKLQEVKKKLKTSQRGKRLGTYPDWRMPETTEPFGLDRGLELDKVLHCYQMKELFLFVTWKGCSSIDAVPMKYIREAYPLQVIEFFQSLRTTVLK

[4] = target: T4, D. melanogaster Moonshiner (D. melanogaster) (UniProt Q9VYQ0)
T4 sequence: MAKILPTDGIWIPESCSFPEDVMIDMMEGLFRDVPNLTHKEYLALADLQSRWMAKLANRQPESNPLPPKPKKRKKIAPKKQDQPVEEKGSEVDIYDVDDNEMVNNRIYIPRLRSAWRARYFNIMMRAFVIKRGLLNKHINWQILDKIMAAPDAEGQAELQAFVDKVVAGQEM

[5] = target: T5, D. melanogaster TFIIA-S (D. melanogaster) (UniProt P52656)
T5 sequence: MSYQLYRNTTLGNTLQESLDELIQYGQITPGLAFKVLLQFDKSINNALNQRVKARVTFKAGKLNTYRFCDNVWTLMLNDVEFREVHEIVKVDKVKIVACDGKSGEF

[6] = target: D. erecta C-terminal Binding Protein (D. erecta)
[7] = target: D. persimilis C-terminal Binding Protein (D. persimilis)
[8] = target: D. simulans C-terminal Binding Protein (D. simulans)
[9] = target: D. virilis C-terminal Binding Protein (D. virilis)

D. melanogaster Kipferl
binding [1]: binds

D. melanogaster Bootlegger
binding [2]: binds

D. simulans Kipferl
binding [3]: binds

D. melanogaster TATA box binding protein-related factor 2
binding [4]: no binding | binding [5]: no binding

D. simulans Bootlegger
binding [2]: binds

B1: D. melanogaster Deadlock (protein, UniProt Q9VIF5 1-981)
chain: T2 sequence
binding [6]: no binding | binding [7]: no binding | binding [8]: no binding | binding [9]: no binding

No constants are given. Whether binding was seen depends on the method and setting. For some of these results: A result given as binding can be weak or reduced; the word gives no strength.
